The other results are listed elsewhere or left out.
Compound: CC1Cc2ccccc2N1C(=O)C1CCCN(C1)C(=O)CCl (mixture of isomers) [TRIM25 ligand 11 (diastereomer mixture)]
Experiment: probe-labelled cysteine peptide fold change vs DMSO (competition) (log2 fold change); higher = less target engagement (more negative = stronger competition)
Details: THP-1, incubation time: 4 h
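Further: competitive chemoproteomic profiling in live THP-1 cells with an iodoacetamide desthiobiotin (IA-DTB) probe, comparing probe-labelled peptide intensities in compound-treated cells against DMSO-treated controls.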

Sequences of proteins named here, by UniProt entry; tags and fusion partners are left off. A change or cut given only in a name is not applied to a line headed by its entry.
UniProt Q9UK41: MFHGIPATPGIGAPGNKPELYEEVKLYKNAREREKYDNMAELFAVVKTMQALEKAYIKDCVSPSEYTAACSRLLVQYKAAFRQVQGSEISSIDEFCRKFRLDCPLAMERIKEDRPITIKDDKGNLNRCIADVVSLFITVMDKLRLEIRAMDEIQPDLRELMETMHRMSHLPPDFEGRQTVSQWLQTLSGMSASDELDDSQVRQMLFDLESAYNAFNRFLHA
UniProt Q8N0U8: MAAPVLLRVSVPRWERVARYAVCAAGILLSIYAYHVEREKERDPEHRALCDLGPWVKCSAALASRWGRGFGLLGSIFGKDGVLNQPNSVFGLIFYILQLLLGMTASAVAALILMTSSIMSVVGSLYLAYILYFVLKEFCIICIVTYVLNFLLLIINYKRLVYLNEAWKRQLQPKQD
UniProt Q9H270: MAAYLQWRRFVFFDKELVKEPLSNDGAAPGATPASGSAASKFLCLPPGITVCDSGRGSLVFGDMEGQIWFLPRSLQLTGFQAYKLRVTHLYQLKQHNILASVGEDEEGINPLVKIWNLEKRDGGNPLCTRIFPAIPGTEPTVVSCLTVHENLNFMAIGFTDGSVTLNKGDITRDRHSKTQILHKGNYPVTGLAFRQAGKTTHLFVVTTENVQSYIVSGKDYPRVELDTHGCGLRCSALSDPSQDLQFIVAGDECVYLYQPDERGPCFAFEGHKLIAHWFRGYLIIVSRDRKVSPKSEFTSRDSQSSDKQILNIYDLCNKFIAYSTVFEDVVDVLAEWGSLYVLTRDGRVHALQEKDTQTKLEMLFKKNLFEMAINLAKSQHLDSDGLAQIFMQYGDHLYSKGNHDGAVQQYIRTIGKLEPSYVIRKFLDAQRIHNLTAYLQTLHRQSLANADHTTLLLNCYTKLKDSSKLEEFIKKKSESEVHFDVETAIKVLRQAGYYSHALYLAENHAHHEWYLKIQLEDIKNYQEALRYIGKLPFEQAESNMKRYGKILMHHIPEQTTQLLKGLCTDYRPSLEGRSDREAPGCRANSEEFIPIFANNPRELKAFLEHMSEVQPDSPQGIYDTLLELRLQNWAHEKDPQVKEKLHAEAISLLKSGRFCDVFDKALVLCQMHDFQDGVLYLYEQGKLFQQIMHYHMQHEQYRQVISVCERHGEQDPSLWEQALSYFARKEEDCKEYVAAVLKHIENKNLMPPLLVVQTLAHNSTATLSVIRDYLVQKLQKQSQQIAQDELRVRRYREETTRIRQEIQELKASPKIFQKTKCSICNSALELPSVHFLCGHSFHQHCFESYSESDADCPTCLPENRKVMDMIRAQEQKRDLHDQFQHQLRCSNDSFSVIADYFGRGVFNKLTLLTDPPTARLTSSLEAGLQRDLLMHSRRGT
UniProt Q96JC1: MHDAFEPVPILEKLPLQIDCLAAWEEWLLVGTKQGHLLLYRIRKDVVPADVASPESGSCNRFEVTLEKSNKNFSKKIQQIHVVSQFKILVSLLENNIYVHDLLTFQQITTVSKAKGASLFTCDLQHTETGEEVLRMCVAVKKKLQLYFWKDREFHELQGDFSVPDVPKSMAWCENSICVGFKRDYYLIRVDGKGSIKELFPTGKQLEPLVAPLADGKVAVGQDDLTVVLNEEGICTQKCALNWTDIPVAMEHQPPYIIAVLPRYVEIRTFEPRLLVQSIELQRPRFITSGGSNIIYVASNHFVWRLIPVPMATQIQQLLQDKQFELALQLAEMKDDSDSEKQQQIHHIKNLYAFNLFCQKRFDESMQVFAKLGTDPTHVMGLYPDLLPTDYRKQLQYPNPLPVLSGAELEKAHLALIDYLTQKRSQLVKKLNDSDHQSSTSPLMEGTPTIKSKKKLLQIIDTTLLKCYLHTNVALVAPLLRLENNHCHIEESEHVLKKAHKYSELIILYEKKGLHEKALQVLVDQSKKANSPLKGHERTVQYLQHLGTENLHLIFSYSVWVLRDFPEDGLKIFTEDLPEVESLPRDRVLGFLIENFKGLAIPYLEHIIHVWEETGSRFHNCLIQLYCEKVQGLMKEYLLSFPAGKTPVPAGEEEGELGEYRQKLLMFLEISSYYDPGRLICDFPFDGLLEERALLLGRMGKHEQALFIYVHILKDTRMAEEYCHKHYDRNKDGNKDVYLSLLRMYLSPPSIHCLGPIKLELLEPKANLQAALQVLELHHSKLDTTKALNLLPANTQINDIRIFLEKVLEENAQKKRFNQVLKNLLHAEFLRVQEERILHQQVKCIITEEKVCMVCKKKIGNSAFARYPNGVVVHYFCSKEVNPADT
UniProt P26640: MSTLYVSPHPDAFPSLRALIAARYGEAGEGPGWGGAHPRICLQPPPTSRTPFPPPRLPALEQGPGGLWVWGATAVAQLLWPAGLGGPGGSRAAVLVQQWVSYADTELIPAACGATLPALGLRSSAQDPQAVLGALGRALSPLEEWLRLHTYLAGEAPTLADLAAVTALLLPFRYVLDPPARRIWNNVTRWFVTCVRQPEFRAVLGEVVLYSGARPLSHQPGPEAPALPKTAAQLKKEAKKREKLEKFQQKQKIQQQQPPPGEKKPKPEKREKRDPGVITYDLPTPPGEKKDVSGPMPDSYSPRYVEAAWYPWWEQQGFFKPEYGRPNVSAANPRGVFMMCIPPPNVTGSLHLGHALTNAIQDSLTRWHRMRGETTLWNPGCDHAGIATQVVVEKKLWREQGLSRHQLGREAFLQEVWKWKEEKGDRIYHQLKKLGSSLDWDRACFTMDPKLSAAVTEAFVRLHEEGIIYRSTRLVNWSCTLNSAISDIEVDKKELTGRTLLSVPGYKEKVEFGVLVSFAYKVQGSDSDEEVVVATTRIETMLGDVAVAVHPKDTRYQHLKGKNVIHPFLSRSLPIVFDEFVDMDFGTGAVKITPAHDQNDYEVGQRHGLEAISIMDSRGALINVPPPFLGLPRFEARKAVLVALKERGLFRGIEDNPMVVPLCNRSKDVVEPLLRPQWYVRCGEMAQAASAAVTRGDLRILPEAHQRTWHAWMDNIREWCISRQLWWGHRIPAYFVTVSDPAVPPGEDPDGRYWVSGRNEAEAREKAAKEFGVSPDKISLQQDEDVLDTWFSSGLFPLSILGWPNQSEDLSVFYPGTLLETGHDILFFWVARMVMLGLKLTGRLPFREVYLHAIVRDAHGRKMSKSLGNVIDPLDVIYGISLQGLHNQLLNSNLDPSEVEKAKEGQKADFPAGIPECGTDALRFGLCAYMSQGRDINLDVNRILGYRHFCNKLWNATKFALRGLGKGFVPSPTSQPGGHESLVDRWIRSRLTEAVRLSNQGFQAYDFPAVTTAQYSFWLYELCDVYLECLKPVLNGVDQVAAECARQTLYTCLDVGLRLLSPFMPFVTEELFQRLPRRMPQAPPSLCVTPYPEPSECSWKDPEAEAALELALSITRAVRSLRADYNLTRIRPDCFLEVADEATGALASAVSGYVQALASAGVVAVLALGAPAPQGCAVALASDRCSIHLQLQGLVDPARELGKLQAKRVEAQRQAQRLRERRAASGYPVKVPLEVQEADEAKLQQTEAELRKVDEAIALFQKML
UniProt Q96JH7: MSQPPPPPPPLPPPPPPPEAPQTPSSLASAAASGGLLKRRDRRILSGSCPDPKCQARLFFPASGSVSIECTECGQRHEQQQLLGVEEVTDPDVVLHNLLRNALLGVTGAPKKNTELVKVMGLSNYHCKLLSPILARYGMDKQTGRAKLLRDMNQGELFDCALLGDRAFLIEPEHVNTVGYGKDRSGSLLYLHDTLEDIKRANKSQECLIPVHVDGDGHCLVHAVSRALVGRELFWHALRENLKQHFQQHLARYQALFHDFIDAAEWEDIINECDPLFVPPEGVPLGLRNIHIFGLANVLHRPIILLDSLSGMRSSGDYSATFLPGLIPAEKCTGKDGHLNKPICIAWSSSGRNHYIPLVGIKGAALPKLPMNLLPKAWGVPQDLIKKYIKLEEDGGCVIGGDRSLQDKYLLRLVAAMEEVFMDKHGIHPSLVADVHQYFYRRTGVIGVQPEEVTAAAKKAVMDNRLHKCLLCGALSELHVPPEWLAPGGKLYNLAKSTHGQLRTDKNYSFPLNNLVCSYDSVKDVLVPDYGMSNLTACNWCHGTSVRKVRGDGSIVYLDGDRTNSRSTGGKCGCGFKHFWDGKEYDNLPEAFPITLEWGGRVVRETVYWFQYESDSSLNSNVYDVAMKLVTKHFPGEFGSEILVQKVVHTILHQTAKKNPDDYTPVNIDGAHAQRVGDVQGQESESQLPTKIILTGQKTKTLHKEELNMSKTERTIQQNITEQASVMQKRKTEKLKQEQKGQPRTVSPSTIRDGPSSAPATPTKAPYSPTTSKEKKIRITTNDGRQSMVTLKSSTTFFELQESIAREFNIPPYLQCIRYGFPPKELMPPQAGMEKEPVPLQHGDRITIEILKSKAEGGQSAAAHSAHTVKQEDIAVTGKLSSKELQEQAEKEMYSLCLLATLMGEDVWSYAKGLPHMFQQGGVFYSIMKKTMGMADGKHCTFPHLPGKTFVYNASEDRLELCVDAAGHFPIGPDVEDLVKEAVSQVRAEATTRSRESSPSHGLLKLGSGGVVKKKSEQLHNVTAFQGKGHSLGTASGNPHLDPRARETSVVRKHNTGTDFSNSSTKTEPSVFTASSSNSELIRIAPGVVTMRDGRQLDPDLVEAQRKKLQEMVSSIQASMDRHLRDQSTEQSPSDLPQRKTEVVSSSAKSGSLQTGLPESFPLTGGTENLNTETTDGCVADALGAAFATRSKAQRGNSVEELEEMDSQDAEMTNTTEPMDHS
UniProt Q15906, whole entry, looked up: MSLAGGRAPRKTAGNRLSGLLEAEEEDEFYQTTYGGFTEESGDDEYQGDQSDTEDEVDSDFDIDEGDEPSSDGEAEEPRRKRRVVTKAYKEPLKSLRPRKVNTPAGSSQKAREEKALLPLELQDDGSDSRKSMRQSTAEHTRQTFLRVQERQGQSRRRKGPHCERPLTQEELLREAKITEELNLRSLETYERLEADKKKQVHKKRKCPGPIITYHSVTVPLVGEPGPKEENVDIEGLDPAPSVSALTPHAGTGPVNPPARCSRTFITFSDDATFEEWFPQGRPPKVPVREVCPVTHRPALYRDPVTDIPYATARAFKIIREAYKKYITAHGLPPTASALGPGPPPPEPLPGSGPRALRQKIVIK
UniProt P61758, whole entry: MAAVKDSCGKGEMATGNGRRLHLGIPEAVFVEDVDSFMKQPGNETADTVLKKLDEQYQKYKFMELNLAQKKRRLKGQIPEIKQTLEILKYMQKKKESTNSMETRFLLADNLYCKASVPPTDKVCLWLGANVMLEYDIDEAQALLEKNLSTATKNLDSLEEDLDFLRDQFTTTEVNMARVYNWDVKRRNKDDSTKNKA
UniProt P55072, whole entry, looked up: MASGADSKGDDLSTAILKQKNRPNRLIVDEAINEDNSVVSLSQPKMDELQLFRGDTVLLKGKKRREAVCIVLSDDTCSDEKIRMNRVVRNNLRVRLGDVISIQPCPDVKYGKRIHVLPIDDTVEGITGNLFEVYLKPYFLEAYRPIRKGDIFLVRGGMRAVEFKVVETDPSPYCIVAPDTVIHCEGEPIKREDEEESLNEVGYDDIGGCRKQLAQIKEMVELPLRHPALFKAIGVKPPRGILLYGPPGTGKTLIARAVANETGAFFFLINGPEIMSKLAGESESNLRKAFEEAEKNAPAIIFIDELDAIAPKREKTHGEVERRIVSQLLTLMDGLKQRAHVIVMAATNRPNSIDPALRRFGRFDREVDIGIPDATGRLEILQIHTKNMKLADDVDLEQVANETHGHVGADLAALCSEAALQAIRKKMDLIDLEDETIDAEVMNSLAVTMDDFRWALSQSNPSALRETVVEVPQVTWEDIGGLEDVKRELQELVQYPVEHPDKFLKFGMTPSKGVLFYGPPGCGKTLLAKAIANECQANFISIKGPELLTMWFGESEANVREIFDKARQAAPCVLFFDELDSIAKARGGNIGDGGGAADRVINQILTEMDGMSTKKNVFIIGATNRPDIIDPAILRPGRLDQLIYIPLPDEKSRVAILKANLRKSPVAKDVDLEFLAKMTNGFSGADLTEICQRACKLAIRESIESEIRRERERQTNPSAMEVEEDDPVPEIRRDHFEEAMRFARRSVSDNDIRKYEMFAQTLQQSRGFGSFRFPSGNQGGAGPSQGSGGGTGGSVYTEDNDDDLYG
UniProt Q8NBZ7: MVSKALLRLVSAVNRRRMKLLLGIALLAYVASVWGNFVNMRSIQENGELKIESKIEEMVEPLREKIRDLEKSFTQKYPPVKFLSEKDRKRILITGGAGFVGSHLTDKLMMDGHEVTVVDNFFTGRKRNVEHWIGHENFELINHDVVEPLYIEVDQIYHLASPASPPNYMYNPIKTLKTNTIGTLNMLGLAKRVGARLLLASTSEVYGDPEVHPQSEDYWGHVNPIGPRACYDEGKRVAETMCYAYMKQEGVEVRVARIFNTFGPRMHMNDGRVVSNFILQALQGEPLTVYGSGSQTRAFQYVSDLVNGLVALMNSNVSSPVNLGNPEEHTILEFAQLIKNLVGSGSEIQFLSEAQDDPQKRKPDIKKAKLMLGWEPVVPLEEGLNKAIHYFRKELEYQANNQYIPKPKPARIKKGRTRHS

| Target | probe-labelled cysteine peptide fold change (10 µM) | probe-labelled cysteine peptide fold change (50 µM) |
| --- | --- | --- |
| VIM_P08670_328_QVQSLTCEVDALK (UniProt P08670) | -0.0632 | -0.207 |
| VPS13C_Q709C8_1098_LNAFCVIVCNEK (UniProt Q709C8) | 0.212 | 0.179 |
| VPS28_Q9UK41_103_LDCPLAMER (UniProt Q9UK41) | 0.165 | 0.0842 |
| VKORC1L1_Q8N0U8_58_CSAALASR (UniProt Q8N0U8) | -0.0906 | 0.0327 |
| VPS11_Q9H270_231_VELDTHGCGLR (UniProt Q9H270) | 0.0608 | 0.122 |
| VPS39_Q96JC1_235_VAVGQDDLTVVLNEEGICTQK (UniProt Q96JC1) | -0.00872 | -0.0751 |
| UTP6_Q9NYH9_566_EELNHPLGRPENCGQIYWR (UniProt Q9NYH9) | -0.17 | 0.151 |
| VPS28_Q9UK41_128_CIADVVSLFITVMDK (UniProt Q9UK41) | -0.0669 | -0.0794 |
| VARS_P26640_444_ACFTMDPK (UniProt P26640) | 0.162 | 0.0366 |
| VIRMA_Q69YN4_781_CTASEETDHSDLLGTLHNLYLITFNPVGR (UniProt Q69YN4) | 0.281 | 0.101 |
| VARS_P26640_479_LVNWSCTLNSAISDIEVDKK (UniProt P26640) | 0.0307 | 0.108 |
| VCL_P18206_422_IAELCDDPK (UniProt P18206) | 0.254 | 0.233 |
| USP8_P40818_985+988_FYCSHCR (UniProt P40818) | 0.0844 | 0.06 |
| VPS54_Q9P1Q0_40_HIRPVPSLPDVCPK (UniProt Q9P1Q0) | 0.0203 | -0.252 |
| VASP_P50552_7_SETVICSSR (UniProt P50552) | 0.55 | 0.717 |
| VPS39_Q96JC1_723_MAEEYCHK (UniProt Q96JC1) | -0.0648 | -0.00167 |
| VCPIP1_Q96JH7_219_SQECLIPVHVDGDGHCLVHAVSR (UniProt Q96JH7) | -0.566 | -1.68 |

| Target | probe-labelled cysteine peptide fold change (10 µM) | probe-labelled cysteine peptide fold change (50 µM) |
| --- | --- | --- |
| VPS72_Q15906_292_EVCPVTHRPALYRDPVTDIPYATAR (UniProt Q15906) | 0.148 | -0.164 |
| VAT1L_Q9HCJ6_253+255_ISAEGVDIVLDCLCGDNTGK (UniProt Q9HCJ6) | 0.196 | -0.072 |
| VCPIP1_Q96JH7_541_DVLVPDYGMSNLTACNWCHGTSVR (UniProt Q96JH7) | -0.171 | -0.202 |
| VPS13C_Q709C8_1613_ITAELNAFNVFVCDQK (UniProt Q709C8) | -0.0795 | 0.0743 |
| VBP1_P61758_113_FLLADNLYCK (UniProt P61758) | -0.0132 | -0.0253 |
| USP9X_Q93008_1061_AICLDHAK (UniProt Q93008) | 0.132 | 0.0679 |
| VCP_P55072_209_EDEEESLNEVGYDDIGGCR (UniProt P55072) | -0.173 | 0.219 |
| VTA1_Q9NP79_38_RDPVVAYYCR (UniProt Q9NP79) | -0.0618 | 0.104 |
| VAV1_P15498_794_YDFCAR (UniProt P15498) | -0.0415 | 0.232 |
| VPS11_Q9H270_586_SDREAPGCR (UniProt Q9H270) | -0.252 | -0.0858 |
| VAV3_Q9UKW4_7_QCAQWLIHCK (UniProt Q9UKW4) | 0.0168 | 0.168 |
| VLDLR_P98155_108_CDGDPDCEDGSDESPEQCHMR (UniProt P98155) | 0.042 | -0.00324 |
| VPS29_Q9UBQ0_15_CNSLPAK (UniProt Q9UBQ0) | -0.0729 | 0.0832 |
| VCP_P55072_572_QAAPCVLFFDELDSIAK (UniProt P55072) | -0.128 | -0.234 |
| VPS52_Q8N1B4_119_DYIQESENIASLHNQITACDAVLER (UniProt Q8N1B4) | 0.0198 | 0.119 |
| UXS1_Q8NBZ7_230_ACYDEGK (UniProt Q8NBZ7) | -0.0489 | -0.0987 |
| VAT1_Q99536_86_ACGLNFADLMAR (UniProt Q99536) | 0.00421 | -0.0371 |

Some of the entries so far, field by field:
VKORC1L1_Q8N0U8_58_CSAALASR (UniProt Q8N0U8)
  probe-labelled cysteine peptide fold change (10 µM): -0.0906; probe-labelled cysteine peptide fold change (50 µM): 0.0327
UXS1_Q8NBZ7_230_ACYDEGK (UniProt Q8NBZ7)
  probe-labelled cysteine peptide fold change (10 µM): -0.0489; probe-labelled cysteine peptide fold change (50 µM): -0.0987
